In paper PMC11352759:
No constants are given. Whether binding was seen depends on the method and setting.

By UniProt entry, the sequences of proteins in these tests, tags left out. Residues count along the entry.
UniProt P02769, residues 25-607: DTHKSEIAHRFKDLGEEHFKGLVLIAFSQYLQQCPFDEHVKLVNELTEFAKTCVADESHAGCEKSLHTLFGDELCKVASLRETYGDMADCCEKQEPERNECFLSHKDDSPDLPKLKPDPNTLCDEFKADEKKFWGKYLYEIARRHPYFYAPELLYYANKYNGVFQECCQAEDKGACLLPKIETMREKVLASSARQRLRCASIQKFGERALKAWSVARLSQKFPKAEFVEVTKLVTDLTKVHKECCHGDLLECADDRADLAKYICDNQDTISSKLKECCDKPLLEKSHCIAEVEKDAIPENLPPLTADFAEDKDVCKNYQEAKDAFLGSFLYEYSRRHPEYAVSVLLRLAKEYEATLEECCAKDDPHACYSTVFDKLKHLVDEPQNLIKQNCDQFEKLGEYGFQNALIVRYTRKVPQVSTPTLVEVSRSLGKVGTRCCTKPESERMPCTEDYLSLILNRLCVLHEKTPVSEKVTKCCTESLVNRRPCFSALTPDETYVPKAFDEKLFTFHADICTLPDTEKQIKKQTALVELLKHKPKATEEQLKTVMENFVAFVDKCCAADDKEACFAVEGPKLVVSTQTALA

Target: Bovine Serum Albumin (bovine) (UniProt P02769)
Assay: graphene field-effect transistor (gFET) with enzymatic read-out (urea hydrolysis); streptavidin (or BSA as control) attached to the gFET surface; incubated with b-urease 5-360 nM for 13 min, washed; slope of IDS vs time after 1 mM urea (VDS 50 mV, VGS -250 mV, 0.1 mM HEPES, 10 mM KCl, pH 6); Hill-like fit; operational constant; both purified

## biotinylated urease (from UniProt P07374 1-840) (enzyme)
  binding: no binding
